The record followed here is paper PMC10165233.

Chains of the proteins cited; added tags and fusions are not shown.
UniProt O14980: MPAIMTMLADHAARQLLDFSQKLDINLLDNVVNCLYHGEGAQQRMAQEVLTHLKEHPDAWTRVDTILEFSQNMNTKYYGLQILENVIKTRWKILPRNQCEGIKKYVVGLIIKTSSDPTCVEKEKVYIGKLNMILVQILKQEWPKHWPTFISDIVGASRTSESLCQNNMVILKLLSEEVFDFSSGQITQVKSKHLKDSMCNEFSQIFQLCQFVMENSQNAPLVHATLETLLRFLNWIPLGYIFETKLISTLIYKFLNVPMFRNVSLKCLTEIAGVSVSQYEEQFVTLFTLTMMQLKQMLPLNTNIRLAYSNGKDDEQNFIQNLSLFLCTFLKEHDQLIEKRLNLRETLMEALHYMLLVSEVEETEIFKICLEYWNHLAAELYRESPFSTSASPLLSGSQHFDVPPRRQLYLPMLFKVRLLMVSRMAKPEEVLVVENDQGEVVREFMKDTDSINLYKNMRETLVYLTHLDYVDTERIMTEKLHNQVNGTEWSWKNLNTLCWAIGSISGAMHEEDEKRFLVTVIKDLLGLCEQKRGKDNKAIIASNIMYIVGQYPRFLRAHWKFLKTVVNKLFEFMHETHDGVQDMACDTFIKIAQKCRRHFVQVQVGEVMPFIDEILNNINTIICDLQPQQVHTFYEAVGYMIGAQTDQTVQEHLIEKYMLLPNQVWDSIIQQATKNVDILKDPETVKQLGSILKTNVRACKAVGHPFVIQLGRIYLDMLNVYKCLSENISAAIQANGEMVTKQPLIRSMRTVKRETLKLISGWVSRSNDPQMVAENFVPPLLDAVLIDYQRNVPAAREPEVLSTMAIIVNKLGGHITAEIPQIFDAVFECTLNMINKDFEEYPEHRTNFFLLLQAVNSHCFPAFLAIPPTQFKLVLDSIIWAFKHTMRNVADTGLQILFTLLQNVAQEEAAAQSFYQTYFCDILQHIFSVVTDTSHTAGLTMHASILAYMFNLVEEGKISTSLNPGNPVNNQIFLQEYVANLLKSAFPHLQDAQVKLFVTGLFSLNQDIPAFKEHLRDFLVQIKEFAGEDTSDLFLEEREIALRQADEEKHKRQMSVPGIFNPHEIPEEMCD

No constants are given. Whether binding was seen depends on the method and setting. Binding seen in cells or lysates may run through a third protein. These calls come from enrichment with a bait or labelling near it, and not all partners need be listed.

In this assay the target is T1, basic leucine zipper transcription factor ATF (activating transcription factor)-like 2 (BATF2) (human (endogenous in HCT116 and CCD 841 CoN)) (UniProt Q8N1L9).
T1 sequence: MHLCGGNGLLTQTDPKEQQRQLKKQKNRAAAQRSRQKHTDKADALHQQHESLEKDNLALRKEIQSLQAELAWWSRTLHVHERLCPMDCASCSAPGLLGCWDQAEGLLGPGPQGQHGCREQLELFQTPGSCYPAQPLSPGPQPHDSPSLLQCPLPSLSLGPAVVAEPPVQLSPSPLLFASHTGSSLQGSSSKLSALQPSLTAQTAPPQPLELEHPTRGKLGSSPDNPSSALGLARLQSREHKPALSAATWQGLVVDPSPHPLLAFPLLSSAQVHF
The assay is described as follows: affinity purification with mass spectrometry; proteins of CCD 841 CoN and HCT116 cells co-immunoprecipitated on anti-IgG or anti-BATF2 magnetic beads; label-free LC-MS/MS.

For the substance “chromosome region maintenance 1 (CRM1) (from UniProt O14980 1-1071)”, the binding entry was “binds”.
